# Results: PubChem BioAssay AID1487 (National Center for Advancing Translational Sciences (NCATS), 2009)
# The other results are listed elsewhere or left out. Further columns of the screen follow, without active or inactive calls. The list favours compounds with an active or inconclusive main result. Potencies come from curve fits of mixed quality, noted in brackets.
# Assay: qHTS Assay for Modulators of Lamin A Splicing
# Conditions: HeLa LMNA splicing GFP/RFP minigene ratio, 48 h
# How it was run: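 Read-out is the ratio of GFP to DsRed2 object intensity, acquired by 488 nm laser-scanning cytometry on HeLa lamin A-EGFP minigene reporter cells. Compound incubation 48 hrs at 37 °C in Opti-MEM with 2% FBS; DMSO 0.5% final.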
# [1] = measured here: RFP viability control channel
# [2] = measured here: GFP splicing reporter channel
SMILES,AC50 [1],AC50 [2]
COc1cc(/C=c2\s/c(=C\C(=O)C(C)(C)C)[nH]c2=O)cc(OC)c1OC,"4.47 µM [rising, full curve, poor fit]",–
c1ccc2[nH]c(CSc3nc4ccccc4o3)nc2c1,"31.6 µM [rising, single point]",–
O=C(c1ccc(Cl)c(S(=O)(=O)N2CCCCCC2)c1)N1CCN(c2ccccn2)CC1,"15.8 µM [rising, single point]","20 µM [rising, single point]"
CC1(C)Cc2nc3oc4c(N(CCO)Cc5ccccc5)ncnc4c3cc2CO1,"20 µM [rising, single point]",–
Cc1ccc(/C=N/NC(=O)CSCc2ccc(Cl)cc2)cc1,"31.6 µM [rising, single point]",–
Cc1cc2ncn(C(=O)c3c(-c4c(Cl)cccc4Cl)noc3C)c2cc1C,"14.1 µM [rising, single point]","22.4 µM [rising, single point]"
O=C(c1ccc(S(=O)(=O)c2ccccc2Cl)c([N+](=O)[O-])c1)N1CCN(Cc2ccccc2)CC1,"35.5 µM [falling, single point]","35.5 µM [falling, single point]"
CC(C)CCNC(=O)C1CCC(Cn2c(=O)c3sccc3n(CC(=O)NC(C)C)c2=O)CC1 (stereo not drawn),"0.631 µM [falling, full curve]",–
NC(=O)c1ccccc1N=Cc1ccc2ccccc2c1,"15.8 µM [rising, single point]",–
Cc1ccc(CN2CCN(/N=C/c3cc(Br)ccc3O)CC2)cc1,–,"35.5 µM [falling, single point]"
COc1cccc(NC(=O)CN(Cc2ccccc2)S(C)(=O)=O)c1,"25.1 µM [rising, single point]","20 µM [rising, partial curve, poor fit]"
Cc1nnc(N/N=C/c2c(O)n(-c3cccc(C(F)(F)F)c3)c(=O)c3ccccc23)[nH]c1=O,"35.5 µM [falling, single point]",–
CC(C)N1CCc2c(sc(NC(=O)c3cc(-c4cccs4)nc4ccccc34)c2C(N)=O)C1,–,"0.355 µM [falling, partial curve, poor fit]"
CCOC(=O)CSC1=C(C#N)C(c2ccccc2OC)CC(=O)N1 (stereo not drawn),"11.2 µM [rising, partial curve]",–
COC(=O)c1cccnc1-n1c(=O)c2cccnc2n(Cc2ccc([N+](=O)[O-])cc2)c1=O,"0.0224 µM [falling, full curve, poor fit]",–
CC(CC(=O)Nc1ccc(Br)cc1F)S(=O)(=O)c1ccc2c(c1)NC(=O)CO2 (stereo not drawn),–,"0.0355 µM [falling, full curve, poor fit]"
CCCC(C)C(=O)NCc1ccncc1 (stereo not drawn),"35.5 µM [falling, single point]","35.5 µM [falling, single point]"
COc1ccccc1-c1cncnc1Nc1ccccc1,"3.98 µM [falling, full curve, poor fit]","15.8 µM [falling, partial curve]"
CCCCOc1ccc(CNC(=O)CCCN2C(=O)CSc3c2c(C)nn3-c2ccccc2)cc1,–,"0.02 µM [falling, full curve, poor fit]"
CCOC(=O)c1ccccc1NC(=O)c1sc2nc3n(c(=O)c2c1C)CCCC3,–,"0.891 µM [rising, full curve, poor fit]"
CCc1ccc(CNC(=O)CN2C(=O)c3cccnc3Oc3ccc(C)cc32)cc1,–,"22.4 µM [falling, partial curve, poor fit]"
O=C(NNC1OC(CO)C(O)C(O)C1O)c1cccc(Br)c1 (stereo not drawn),"10 µM [falling, partial curve, poor fit]",–
COc1ccc2[nH]cc(CCNc3ccnc(-c4ccccc4Cl)n3)c2c1,"35.5 µM [falling, single point]","12.6 µM [falling, partial curve, poor fit]"
O=C(Oc1c(CN2CCOCC2)cc(Cl)c2cccnc12)c1ccccc1F,"2.82 µM [falling, full curve]",–
Nc1ncnc2c1ncn2[C@@H]1O[C@H](COP(=O)(O)OP(=O)(O)OP(=O)(O)OP(=O)(O)OC[C@@H]2O[C@H](n3cnc4c(N)ncnc43)[C@@H](O)[C@@H]2O)[C@H](O)[C@H]1O,"0.00562 µM [falling, full curve, poor fit]","0.00562 µM [falling, full curve, poor fit]"
Cc1cc(C)c2sc(NNC(=O)c3ccc(S(=O)(=O)N4CCc5ccccc5C4)cc3)nc2c1,"12.6 µM [rising, single point]","3.98 µM [rising, single point]"
C(=C\c1nc(N2CCCCCC2)c2ccccc2n1)/c1ccccc1,"31.6 µM [rising, single point]",–

SMILES,AC50 [1],AC50 [2]
O=C(CC(=O)Nc1cccc(Cl)c1)N/N=C\c1ccccc1,"20 µM [rising, single point]",–
Cc1ccc(S(=O)(=O)Nc2ccc(N=Nc3ccc(O)cc3)cc2)cc1,"11.2 µM [rising, single point]",–
O=C(Nc1cccc(S(=O)(=O)N2CCCCC2)c1)Nc1ccc(Cl)cc1Cl,"15.8 µM [rising, single point]",–
COC(=O)c1ccc(OCC(O)CN2C(=O)c3ccccc3S2(=O)=O)cc1 (stereo not drawn),"1.12 µM [falling, full curve, poor fit]","0.708 µM [falling, full curve, poor fit]"
Cc1ccc(N(C(=O)c2snc(C(N)=O)c2N)C(C(=O)NCCC(C)C)c2ccco2)cc1 (stereo not drawn),–,"7.08 µM [falling, full curve, poor fit]"
O=C(NCc1cccnc1)C1CCN(S(=O)(=O)N2CCOCC2)CC1,"6.31 µM [falling, single point]",–
CCOC(=O)Cc1ccc(NS(=O)(=O)c2ccc(SC)cc2)cc1,"28.2 µM [rising, single point]",–
Cc1ccc(NC(=S)NC(NC(=O)Cc2cccc3ccccc23)C(Cl)(Cl)Cl)cc1 (stereo not drawn),"14.1 µM [falling, partial curve]","35.5 µM [falling, single point]"
CCn1c(-c2nn(C)cc2Cl)n[nH]c1=S,"1.78 µM [falling, full curve]",–
C1CCN2C[C@@H]3C[C@@H](CN4CCCC[C@H]34)[C@H]2C1,"0.316 µM [falling, single point]","5.62 µM [falling, partial curve]"
CC(c1cccs1)N(Cc1ccco1)C(=O)Nc1ccc(Cl)c(Cl)c1 (stereo not drawn),"31.6 µM [rising, single point]","35.5 µM [rising, single point]"
Cc1onc(-c2c(Cl)cccc2Cl)c1C(=O)c1c[nH]c(C(=O)NCC2CCCO2)c1 (stereo not drawn),"35.5 µM [falling, single point]","35.5 µM [falling, single point]"
CCCOC(=O)c1ccc(Cl)c(NC(=O)c2cccnc2)c1,"2 µM [falling, full curve, poor fit]","1.12 µM [falling, full curve, poor fit]"
Cc1ccc(C)c(S(=O)(=O)NCc2ccc(C(=O)N3CCC(Cc4ccccc4)CC3)cc2)c1,"10 µM [falling, partial curve]","11.2 µM [falling, single point]"
O=C(NCCCN1CCN(c2ccc(F)cc2)CC1)Nc1ccc([N+](=O)[O-])cc1,"0.398 µM [falling, full curve, poor fit]","0.316 µM [falling, full curve]"
COC(=O)c1c(NS(=O)(=O)c2ccc(C)cc2)sc2c1CCC(C)C2 (stereo not drawn),"35.5 µM [rising, single point]",–
Cc1cc(OCC(=O)NC2CCN(C)CC2)ccc1[N+](=O)[O-],"4.47 µM [falling, partial curve]",–
CC1=C(c2ccc(C)cc2)S(=O)(=O)N(Cc2ccc(C(=O)Nc3ccc(F)cc3C)cc2)C1=O,"1.41 µM [rising, full curve, poor fit]",–
Cc1ccc(C)c(NC(=O)c2cnn3ccccc23)c1,"12.6 µM [rising, partial curve]",–
O=C(c1ccc2c(Cl)c3c(nc2c1)CCCC3)N1CCN(c2ccc(F)cc2)CC1,"22.4 µM [rising, partial curve]","12.6 µM [rising, single point]"
Cn1c(=O)n(C/C=C/c2ccccc2)c(=O)c2c1nc1n2CCCN1c1ccc(F)cc1,"15.8 µM [rising, partial curve]","22.4 µM [rising, single point]"
C=CCNC(=O)COC(=O)c1ccccc1C(=O)N(C)C1CCCCC1,"0.0316 µM [falling, full curve, poor fit]","0.0316 µM [falling, full curve, poor fit]"
CCOC(=O)N1CCN(C(=O)c2ccc(Cl)c(S(=O)(=O)Nc3ccccc3)c2)CC1,"8.91 µM [rising, partial curve, poor fit]",–
COc1ccc(NC(=O)CCC(=O)c2cccs2)cc1S(=O)(=O)Nc1ccc(Cl)cc1,"35.5 µM [rising, single point]",–
CCOc1ccc(NC(=O)Cn2ccn(-c3ccc(F)c(F)c3)c(=O)c2=O)cc1,–,"0.1 µM [rising, full curve]"
C#CCn1c(S(=O)(=O)Cc2ccc(F)cc2)nc(-c2ccccc2)c1-c1ccccc1,"4.47 µM [rising, full curve]",–

# Two compounds drawn at random from the list so far, as already listed:
SMILES,AC50 [1],AC50 [2]
CC1=C(c2ccc(C)cc2)S(=O)(=O)N(Cc2ccc(C(=O)Nc3ccc(F)cc3C)cc2)C1=O,"1.41 µM [rising, full curve, poor fit]",–
O=C(Nc1cccc(S(=O)(=O)N2CCCCC2)c1)Nc1ccc(Cl)cc1Cl,"15.8 µM [rising, single point]",–
